Measurements from PubChem BioAssay AID493014 (National Center for Advancing Translational Sciences (NCATS), 2011).
This is one part of the list. The main result of the screen is listed elsewhere. These columns were measured beside it and carry no call. Most of these compounds were active or inconclusive in the main read-out, so they are no random draw. Words in brackets tell the shape of the fitted curve; partial curves, single points and poor fits give uncertain potencies.

Test: qHTS Assay to Find Inhibitors of Chronic Active B-Cell Receptor Signaling
Conditions: ABC-DLBCL IkBa-CBG/CBR reporter, luminescence ratio (green luciferase fused to IkBa over red control in TMD8 lymphoma cells), 4 h
Outline: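 Cell line TMD8 (human ABC DLBCL), stably expressing tet-inducible CBG68-IkBa fusion and CBR; IMDM/0.5% FBS; cpd up to 46 uM; dox induction, 4 h, 37C/5% CO2; dual luminescence; green/red ratio; MG132 control.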

[1] = measured here: CBR red luminescence, cell number
[2] = measured here: IkBa-CBG green luminescence

SMILES	AC50 [1]	AC50 [2]
CCOC(=O)C1CCN(C(=O)CCCOc2ccccc2)CC1	32.6 µM [falling, single point]	
CCCCCCNC(=O)CCc1nc2cccnc2n1Cc1ccc(OC)cc1	11.2 µM [falling, single point]	
CCc1nnc(NC(=O)CSc2nc3c(c(=O)n2CC)SC(C)C3)s1 (stereo not given)	32.6 µM [falling, single point]	
Cc1ccc2cc(CCNC(=O)c3cccc([N+](=O)[O-])c3)c(=O)[nH]c2c1	35.5 µM [falling, partial curve, poor fit]	
Cc1cccc(C(=O)NNC(=O)c2ccccc2C)c1	14.1 µM [falling, partial curve, poor fit]	
Cc1sc2nc(CN(Cc3cccs3)C(=O)NC3CCCCC3)[nH]c(=O)c2c1C	7.08 µM [falling, partial curve]	
O=C(CN1C(=O)NC(c2ccccc2)(c2ccccc2)C1=O)NCC(=O)Nc1ccc(F)cc1	9.2 µM [rising, partial curve, poor fit]	
COc1ccc(CCNC(=O)c2coc3ccccc3c2=O)cc1OC	3.98 µM [falling, partial curve, poor fit]	
Cc1ccc(C)c(N2CCN(C(=O)CCCCCn3c(=S)[nH]c4ccc(N5CCOCC5)cc4c3=O)CC2)c1	7.94 µM [falling, partial curve, poor fit]	
COc1cc(-c2noc(CCCC(=O)Nc3ccc(C(N)=O)cc3)n2)cc(OC)c1OC		12.6 µM [falling, partial curve, poor fit]
CCOC(=O)Cn1c(=O)n(CC(=O)OCC)c2ccccc21	1.84 µM [rising, partial curve, poor fit]	
Fc1ccc2cc(-c3cccnc3)ncc2c1	32.6 µM [rising, partial curve, poor fit]	
CCCCCCn1nc(C(=O)Nc2nc3c(s2)CCCC3)c2ccccc2c1=O	1.3 µM [rising, full curve]	
Cc1cc(S(=O)(=O)N2CCN(CC(=O)N(C)Cc3ccccc3)CC2)ccc1Br	20.6 µM [falling, partial curve]	
O=C(COC(=O)COc1cc(Cl)c(Cl)cc1Cl)NC1CC1	23.1 µM [rising, partial curve, poor fit]	
Cc1ccc(C)c(S(=O)(=O)N(C(=O)c2ccncc2)c2ccc(OC(=O)c3ccncc3)cc2)c1	8.91 µM [falling, partial curve, poor fit]	
CCCN1CCn2c3c(c4cc(Br)ccc42)CCCC31 (stereo not given)	35.5 µM [rising, partial curve, poor fit]	
C=CCOC(=O)C1=C(C)NC(=O)NC1c1cc(Cl)cc(Cl)c1OC (stereo not given)	22.4 µM [falling, partial curve, poor fit]	
CN(C)S(=O)(=O)c1ccc(Cl)c(NC(=O)COC(=O)c2ccc(O)cc2)c1	35.5 µM [falling, single point]	15.8 µM [rising, partial curve, poor fit]
Cc1ccc(OC(C)C(=O)Nc2ccc3c(c2)n(C)c(=O)n3C)c(C)c1 (stereo not given)	11.2 µM [rising, partial curve]	12.6 µM [falling, partial curve, poor fit]

SMILES	AC50 [1]	AC50 [2]
Fc1ccccc1-n1c(-c2ccc3ccccc3n2)n[nH]c1=S	2.82 µM [falling, full curve, poor fit]	
CC[C@@H](C)[C@H](N)C(=O)NC[C@H]1O[C@@H](n2cnc3c(N)ncnc32)[C@H](O)[C@@H]1O	16.4 µM [rising, partial curve, poor fit]	
CCC(C)NC(=O)CNC(=O)Cn1c(C)cc2ccccc2c1=O (stereo not given)	2.31 µM [rising, partial curve, poor fit]	
C[C@@H](CSc1ccc(Br)cc1)CN1CC[C@H](NC(=O)OCc2ccccc2)CCC1=O	29.1 µM [falling, single point]	
O=C(NC(=S)N1CCN(c2nc(-c3ccccc3)cs2)CC1)c1cncc(Br)c1	12.6 µM [rising, partial curve, poor fit]	25.1 µM [falling, single point]
Cc1c(Oc2ccc(C(F)(F)F)cc2[N+](=O)[O-])ccc2c3c(c(=O)oc12)CCC3	0.0651 µM [rising, full curve]	
CC(=O)N(/N=C1\Sc2ccccc2C1=O)c1ccccc1C	1.12 µM [falling, full curve]	
O=C(c1ccc(Oc2ccc([N+](=O)[O-])cc2)cc1)N1CCCCCC1	14.1 µM [falling, partial curve, poor fit]	
O=C(Nc1nc(-c2ccc(S(=O)(=O)N3CCOCC3)cc2)cs1)c1ccccc1	3.16 µM [falling, partial curve, poor fit]	
OCCN1CCN(C(=S)c2ccc(Cl)c(Cl)c2)CC1	25.9 µM [falling, single point]	
Cc1ccc2c(COC(=O)c3ccccc3F)cc(=O)oc2c1	0.224 µM [rising, full curve]	
Cc1ccc(Nc2nnc(SC(C)C(=O)Nc3c(C)n(C)n(-c4ccccc4)c3=O)s2)cc1 (stereo not given)	1.16 µM [falling, full curve]	
CCCCC(=O)Nc1ccc(NC(=O)C2CC2)cn1	1.41 µM [rising, full curve, poor fit]	
CC(C)(C)c1ccc(/C=N/NC(=O)c2ccccn2)cc1	11.2 µM [falling, partial curve, poor fit]	
CCNC(=O)NC(=O)C(C)OC(=O)CCCSc1nc2ccccc2s1 (stereo not given)	8.2 µM [falling, partial curve]	0.103 µM [rising, partial curve, poor fit]
CC(C)N(Cc1nc(-c2ccccc2)no1)C(=O)COc1ccccc1	2.91 µM [rising, full curve, poor fit]	
O=C(Nc1ccn(Cc2ccccc2)n1)c1ccc2c(c1)OCO2	10 µM [falling, partial curve, poor fit]	
CCOc1ccc(Oc2ccc(-c3nnc(-c4ccccc4)o3)cc2[N+](=O)[O-])cc1	10 µM [falling, partial curve]	
Cn1c(SCC(=O)c2ccc3c(c2)OCCO3)nnc1C1CC1	29.1 µM [falling, single point]	
Cc1cccc(NC(=O)c2ccc3c(=O)n(CC4CCCO4)c(=S)[nH]c3c2)c1 (stereo not given)	12.6 µM [falling, single point]	

SMILES	AC50 [1]	AC50 [2]
Cc1ccc(NC(=O)c2cccc(S(=O)(=O)N3CCCCC3)c2)cc1	7.94 µM [falling, partial curve, poor fit]	
CC(C)N1C(=O)S/C(=C/c2ccc3c(c2)n(C)c(=O)n3C)C1=O	0.282 µM [rising, full curve, poor fit]	
CC1CCN(C(=O)CNC(=O)Cc2ccccc2)CC1	35.5 µM [falling, single point]	
COc1ccc(-n2[nH]c(C)cc2=O)cc1	3.55 µM [rising, partial curve, poor fit]	
NC(=O)c1ccsc1NC(=O)CSc1ccccc1F	11.6 µM [falling, partial curve, poor fit]	
COc1ccc(N2CCN(C(CNC(=O)C(C)(C)C)c3ccco3)CC2)cc1 (stereo not given)	3.98 µM [falling, full curve, poor fit]	
COc1ccc(C(=O)NNC(=O)C2(C)CC2(Br)Br)cc1 (stereo not given)	3.98 µM [falling, partial curve, poor fit]	
CC1=NN(C(=O)c2ccccc2F)C(O)(c2ccc(Cl)cc2)C1 (stereo not given)	8.91 µM [falling, partial curve, poor fit]	
CCCn1c(-c2ccc(F)cc2)n[nH]c1=S	10 µM [falling, partial curve, poor fit]	35.5 µM [falling, single point]
O=C1N/C(=C/c2ccc(N3CCOCC3)o2)C(=O)N1c1cccc(Cl)c1	11.2 µM [falling, partial curve]	3.16 µM [falling, partial curve, poor fit]
CCN(CC)c1ccc(/C=N/Nc2nc(C)cc(C)n2)c(O)c1	29.1 µM [falling, single point]	
COc1ccc(C(=O)C2CCCN(C(=O)c3cc4nc(C)cc(C)n4n3)C2)cc1F (stereo not given)	31.6 µM [rising, single point]	
COc1ccc(NC(=O)CN(C)C(=O)c2cn(-c3ccccc3)nc2-c2ccc(OC)cc2)cc1	9.2 µM [rising, partial curve]	
O=C(NCc1ccc2c(c1)OCO2)c1nc(S(=O)(=O)Cc2ccccc2)ncc1Cl	15.8 µM [falling, single point]	
O=C(Nc1ccc(F)cc1)c1oc2ccccc2c1NC(=O)C1CCCC1	1 µM [falling, partial curve, poor fit]	
COc1ccc(CCNC(=O)C(=O)NCC2CCCO2)cc1 (stereo not given)	2.06 µM [rising, partial curve, poor fit]	
CCNc1nc(NC(C)C)nc(N(C#N)CCOc2ccccc2)n1	29.1 µM [falling, single point]	
CCOC(=O)C1=C(C)C(c2ccc(OC)cc2OC)NC(=O)N1 (stereo not given)	1.3 µM [rising, full curve, poor fit]	
CC1Sc2ccc(S(=O)(=O)N3CCN(c4cccc(Cl)c4)CC3)cc2NC1=O (stereo not given)	11.2 µM [falling, partial curve]	

Filtered by structure: the compounds so far containing a nitro group on carbon.
SMILES	AC50 [1]	AC50 [2]
Cc1ccc2cc(CCNC(=O)c3cccc([N+](=O)[O-])c3)c(=O)[nH]c2c1	35.5 µM [falling, partial curve, poor fit]	
Cc1c(Oc2ccc(C(F)(F)F)cc2[N+](=O)[O-])ccc2c3c(c(=O)oc12)CCC3	0.0651 µM [rising, full curve]	
O=C(c1ccc(Oc2ccc([N+](=O)[O-])cc2)cc1)N1CCCCCC1	14.1 µM [falling, partial curve, poor fit]	
CCOc1ccc(Oc2ccc(-c3nnc(-c4ccccc4)o3)cc2[N+](=O)[O-])cc1	10 µM [falling, partial curve]	
